Assay results from patent US20220235144A1.
Changes are numbered by the printed parent chain. Results are given in words; binding and its absence hold for the method and conditions named. Some binding calls cover weakened binding; strength is not graded here.

Chains of the proteins cited; added tags and fusions are not shown. Lines headed by an entry give the natural chain unless they say otherwise; changes in a name come on top. A line that says so, or that is headed by a name, gives the form on record, which may keep a tag or linker.
hSIRPαV2 expressed on the cell surface (P78324, form named): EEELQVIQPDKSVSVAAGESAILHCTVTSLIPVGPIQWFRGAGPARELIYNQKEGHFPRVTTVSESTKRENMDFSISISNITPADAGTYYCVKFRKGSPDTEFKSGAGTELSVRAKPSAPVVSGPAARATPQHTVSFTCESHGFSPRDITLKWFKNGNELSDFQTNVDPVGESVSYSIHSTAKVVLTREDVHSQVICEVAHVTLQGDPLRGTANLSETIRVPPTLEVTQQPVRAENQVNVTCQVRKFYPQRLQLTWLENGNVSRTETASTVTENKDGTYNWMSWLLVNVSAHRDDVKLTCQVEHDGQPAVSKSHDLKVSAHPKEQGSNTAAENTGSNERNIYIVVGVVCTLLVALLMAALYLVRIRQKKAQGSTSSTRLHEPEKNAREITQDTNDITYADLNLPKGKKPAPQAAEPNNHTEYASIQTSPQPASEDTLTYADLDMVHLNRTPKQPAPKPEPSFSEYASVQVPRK
UniProt Q9P1W8: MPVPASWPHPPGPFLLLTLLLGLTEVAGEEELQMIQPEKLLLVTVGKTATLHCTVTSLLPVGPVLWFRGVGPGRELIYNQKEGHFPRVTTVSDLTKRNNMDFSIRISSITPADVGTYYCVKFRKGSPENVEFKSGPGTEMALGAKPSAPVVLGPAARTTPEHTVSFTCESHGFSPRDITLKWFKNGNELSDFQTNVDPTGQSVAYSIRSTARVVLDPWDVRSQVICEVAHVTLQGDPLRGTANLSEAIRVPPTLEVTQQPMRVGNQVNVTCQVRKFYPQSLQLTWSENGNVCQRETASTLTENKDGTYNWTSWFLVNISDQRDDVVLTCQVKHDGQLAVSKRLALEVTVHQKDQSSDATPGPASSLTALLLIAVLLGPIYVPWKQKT

B1: Ab11_G4 (antibody, human IgG4 S228P, kappa, V domains shown)
VH: EVQLVESGGGLVKPGGSLRLSCAASGFTFSSYVMSWVRQTPGKGLEWVATISSGGTYTYYPDSVKGRFTLSRDNAKNSLYLQMNSLRAEDTAVYYCASQLTGSEFDYWGQGTTVTVSS
VL: DIVITQSPASLAVSLGERATISCRASESVDSYGNSFMHWYQQKPGQPPKLLIYRASNLESGVPDRFSGSGSRTDFTLTINPLQAEDVATYYCHQSGDLPWTFGGGTKVEIKR
B2: Ab1_G4 (antibody, human IgG4 S228P, kappa, V domains shown)
VH: B1 VH with D62S, Q99S, E104S
VL: DIVLTQSPASLAVSLGERATISCRASESVDLYGTSFMHWYQQKPGQPPKLLIYRASNLESGVPDRFSGSGSRTDFTLTINPLQAEDVATYYCHQSSDELPWTFGGGTKVEIKR
B3: Ab2_G4 (antibody, human IgG4 S228P, kappa, V domains shown)
VH: B1 VH with Q99S, L100V, T101D, E104A
VL: B2 VL with L4I, L31S, T34M, D97E, E98N
B4: Ab9_G4 (antibody, human IgG4 S228P, kappa, V domains shown)
VH: B1 VH with D62N, A97V, Q99S, L100M, E104S
VL: B2 VL with L4I, L31S, T34N, D97E, E98Q
B5: Ab8_G4 (antibody, human IgG4 S228P, kappa, V domains shown)
VH: B1 VH with D62E
VL: B1 VL with I4M, G96A
B6: Ab24_G2 (antibody, human IgG2, kappa)
heavy: EVQLVESGGGLVKPGGSLRLSCAASGFTFSSYVMSWVRQTPGKGLEWVATISSGGTYTYYPDSVKGRFTLSRDNAKNSLYLQMNSLRAEDTAVYYCASQLTGSEFDYWGQGTTVTVSSASTKGPSVFPLAPCSRSTSESTAALGCLVKDYFPEPVTVSWNSGALTSGVHTFPAVLQSSGLYSLSSVVTVPSSNFGTQTYTCNVDHKPSNTKVDKTVERKCCVECPPCPAPPVAGPSVFLFPPKPKDTLMISRTPEVTCVVVDVSHEDPEVQFNWYVDGVEVHNAKTKPREEQFNSTFRVVSVLTVVHQDWLNGKEYKCKVSNKGLPAPIEKTISKTKGQPREPQVYTLPPSREEMTKNQVSLTCLVKGFYPSDIAVEWESNGQPENNYKTTPPMLDSDGSFFLYSKLTVDKSRWQQGNVFSCSVMHEALHNHYTQKSLSLSPGK
light: DIVLTQSPASLAVSLGERATISCRASESVDLYGTSFMHWYQQKPGQPPKLLIYRASNLESGVPDRFSGSGSRTDFTLTINPLQAEDVATYYCHQSSDELPWTFGGGTKVEIKRTVAAPSVFIFPPSDEQLKSGTASVVCLLNNFYPREAKVQWKVDNALQSGNSQESVTEQDSKDSTYSLSSTLTLSKADYEKHKVYACEVTHQGLSSPVTKSFNRGEC
B7: Ab24_4422 PA (antibody, human IgG4 S228P, kappa)
heavy: B6 heavy with N193S, F194L, Q197K, T215R, R218S, C220Y, C221G, V222P, E223P, P326A
light: B6 light

Each binder was assayed against hSIRPαV2 expressed on the cell surface (human) (UniProt P78324) (assay: flow cytometry on monocytes in PBMCs, FIG. 6B).

binding, binds:
B1

These binders were tested against hSIRPγD1 with histidine tag (human) (UniProt Q9P1W8) (assay: SPR (Biacore), summary of Tables 13 and 14).

binding, binds:
B2
B3
B1
B4
B5

The binders below were run against hSIRPαV2 expressed on the cell surface (human) (UniProt P78324) (assay: FACS competition on EXPI293 cells stably expressing hSIRPαV2: biotinylated hCD47:Fc (2.5 µg/ml) mixed with serial dilutions of the antibody, bound hCD47:Fc detected with streptavidin-PE (MFI); blocked ligand: hCD47:Fc).

binding, binds:
B2
B6
B3
B7
B1
B4

What follows are binders tested against hSIRPαV2 expressed on the cell surface (human) (UniProt P78324) (assay: flow cytometry on primary human monocytes (FSC/SSC gate) in PBMCs expressing only SIRPαV2, antibody detected with APC-(Fab)2 goat anti-human IgG Fc (MFI at about 670 nm)).

binding, binds:
B1
